Experimental data as given in article PMC11335214.
Results are given in words; binding and its absence hold for the method and conditions named. In cells and extracts the contact can be indirect. Some binding calls cover weakened binding; strength is not graded here. Where a sequence is shown, tags or fusion partners need not be part of it.

T1: HA-tagged Lhx3 (UniProt P50481)
T1 sequence: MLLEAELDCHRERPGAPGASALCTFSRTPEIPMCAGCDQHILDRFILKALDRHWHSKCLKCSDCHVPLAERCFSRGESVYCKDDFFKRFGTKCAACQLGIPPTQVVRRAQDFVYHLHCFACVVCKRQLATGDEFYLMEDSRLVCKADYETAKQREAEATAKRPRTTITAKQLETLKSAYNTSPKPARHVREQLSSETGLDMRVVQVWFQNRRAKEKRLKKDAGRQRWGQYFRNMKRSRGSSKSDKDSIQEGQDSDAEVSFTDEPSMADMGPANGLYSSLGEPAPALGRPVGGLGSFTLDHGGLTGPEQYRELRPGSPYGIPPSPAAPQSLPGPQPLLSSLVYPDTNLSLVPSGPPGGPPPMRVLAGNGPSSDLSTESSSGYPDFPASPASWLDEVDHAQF

T2: HA-tagged Lhx4 (UniProt P53776)
T2 sequence: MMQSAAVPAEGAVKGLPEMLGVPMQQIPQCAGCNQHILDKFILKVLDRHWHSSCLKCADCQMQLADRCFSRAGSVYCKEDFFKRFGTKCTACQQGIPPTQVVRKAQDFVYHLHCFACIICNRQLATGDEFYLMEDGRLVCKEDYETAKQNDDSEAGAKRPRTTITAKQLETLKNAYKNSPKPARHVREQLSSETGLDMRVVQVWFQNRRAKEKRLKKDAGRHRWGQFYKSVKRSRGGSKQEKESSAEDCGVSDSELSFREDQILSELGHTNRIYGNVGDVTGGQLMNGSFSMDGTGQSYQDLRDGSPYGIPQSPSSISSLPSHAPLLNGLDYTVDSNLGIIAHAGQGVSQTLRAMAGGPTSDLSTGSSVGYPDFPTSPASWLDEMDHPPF


How the values were obtained:
[1] = target: T1, HA-tagged Lhx3; assay: co-IP; P19 cells transfected with pCS2-HA-Lhx3 or pCS2-HA-Lhx4 with or without pCS2-Myc-Isl1 or pCS2-Myc-Isl2 (500 ng each), lysed after 48 h in Tris-HCl 20 mM pH 7.5, 120 mM NaCl, 0.5% NP40, 10% glycerol; anti-HA antibody overnight at 4 °C, protein G-agarose beads; immunoblot with anti-Myc, anti-HA and anti-CLIM1/2
[2] = target: T2, HA-tagged Lhx4; assay: as above

binding [1]	binding [2]	Binder
binds	binds	Myc-tagged Isl1 (protein, UniProt P61372 1-349) MGDMGDPPKKKRLISLCVGCGNQIHDQYILRVSPDLEWHAACLKCAECNQYLDESCTCFVRDGKTYCKRDYIRLYGIKCAKCSIGFSKNDFVMRARSKVYHIECFRCVACSRQLIPGDEFALREDGLFCRADHDVVERASLGAGDPLSPLHPARPLQMAAEPISARQPALRPHVHKQPEKTTRVRTVLNEKQLHTLRTCYAANPRPDALMKEQLVEMTGLSPRVIRVWFQNKRCKDKKRSIMMKQLQQQQPNDKTNIQGMTGTPMVAASPERHDGGLQANPVEVQSYQPPWKVLSDFALQSDIDQPAFQQLVNFSEGGPGSNSTGSEVASMSSQLPDTPNSMVASPIEA
binds	binds	nuclear LIM interactor (NLI) (protein, UniProt P70662 1-411) MSVGCACPGCSSKSFKLYSPKEPPNGNAFPPFHPGTMLDRDVGPTPMYPPTYLEPGIGRHTPYGNQTDYRIFELNKRLQNWTEECDNLWWDAFTTEFFEDDAMLTITFCLEDGPKRYTIGRTLIPRYFRSIFEGGATELYYVLKHPKEAFHSNFVSLDCDQGSMVTQHGKPMFTQVCVEGRLYLEFMFDDMMRIKTWHFSIRQHRELIPRSILAMHAQDPQMLDQLSKNITRCGLSNSTLNYLRLCVILEPMQELMSRHKTYSLSPRDCLKTCLFQKWQRMVAPPAEPARQQPSKRRKRKMSGGSTMSSGGGNTNNSNSKKKSPASTFALSSQVPDVMVVGEPTLMGGEFGDEDERLITRLENTQFDAANGIDDEDSFNNSPALGANSPWNSKPPSSQESKSENPTSQASQ
binds	binds	Myc-tagged Isl2 (protein, UniProt Q9CXV0 1-359) MVDIIFHYPFLGAMGDHSKKKPGTAMCVGCGSQIHDQFILRVSPDLEWHAACLKCAECSQYLDETCTCFVRDGKTYCKRDYVRLFGIKCAQCQVGFSSSDLVMRARDSVYHIECFRCSVCSRQLLPGDEFSLREHELLCRADHGLLLERAAAGSPRSPGPLPGARGLHLPDAGSGRQPSLRTHVHKQAEKTTRVRTVLNEKQLHTLRTCYAANPRPDALMKEQLVEMTGLSPRVIRVWFQNKRCKDKKKSILMKQLQQQQHSDKASLQGLTGTPLVAGSPIRHENAVQGSAVEVQTYQPPWKALSEFALQSDLDQPAFQQLVSFSESGSLGNSSGSDVTSLSSQLPDTPNSMVPSPVET
